From the supplement of paper PMC7411640
Counter-ions that a name gives are not always drawn. The list shows a part of the results. Most values lie within the scatter of the assay; repeated measurements hardly agree.

Test system: MDA-MB-468
Assay: phospho-S6 immunofluorescence (DAPI-normalised), per-plate z-score; higher = higher phospho-S6 signal (less pathway suppression)
Conditions: 24 h
Procedure: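 GPCR-targeted compound library (MedChemExpress HY-L006) tested on MDA-MB-468 PTEN-null TNBC cells in 384-well plates at 0.1, 1 or 10 uM, combined with vehicle, GDC0941 450 nM or lapatinib 1 uM, for 24 h. Phospho-S6 (S240/244) immunofluorescence normalised to DAPI and expressed as a per-plate z-score; values are the mean of biological triplicates.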

[1] = compound 0.1 µM, co-treatment: GDC0941 450 nM
[2] = compound 0.1 µM, co-treatment: lapatinib 1 uM
[3] = compound 0.1 µM, co-treatment: vehicle
[4] = compound 1 µM, co-treatment: GDC0941 450 nM
[5] = compound 1 µM, co-treatment: lapatinib 1 uM
[6] = compound 1 µM, co-treatment: vehicle
[7] = compound 10 µM, co-treatment: GDC0941 450 nM
[8] = compound 10 µM, co-treatment: lapatinib 1 uM
[9] = compound 10 µM, co-treatment: vehicle

Compound | phospho-S6 immunofluorescence (z-score) [1] | phospho-S6 immunofluorescence (z-score) [2] | phospho-S6 immunofluorescence (z-score) [3] | phospho-S6 immunofluorescence (z-score) [4] | phospho-S6 immunofluorescence (z-score) [5] | phospho-S6 immunofluorescence (z-score) [6] | phospho-S6 immunofluorescence (z-score) [7] | phospho-S6 immunofluorescence (z-score) [8] | phospho-S6 immunofluorescence (z-score) [9]
CC1(C)O[C@@H]2C[C@H]3[C@@H]4CCC5=CC(=O)C=C[C@]5(C)[C@H]4[C@@H](O)C[C@]3(C)[C@]2(C(=O)CO)O1 [Desonide] | 0.92 | 1.88 | 2.18 | 0.01 | 1.53 | 1.42 | -0.1 | 0.54 | 1.16
C[C@@H](O[C@H]1OCCN(Cc2nn(P(=O)(O)O)c(=O)[nH]2)[C@H]1c1ccc(F)cc1)c1cc(C(F)(F)F)cc(C(F)(F)F)c1 [Fosaprepitant (dimeglumine)] | -1.13 | -0.41 | 0.28 | -1.24 | -1.12 | -0.4 | -2.28 | -0.65 | 0.39
N=C(N)NCCC[C@@H](NC(=O)[C@@H]1CCCN1C(=O)[C@@H]1CSSCCC(=O)N[C@@H](Cc2ccc(O)cc2)C(=O)N[C@@H](Cc2ccccc2)C(=O)N[C@@H](CCC(N)=O)C(=O)N[C@@H](CC(N)=O)C(=O)N1)C(=O)NCC(N)=O [Desmopressin (Acetate)] | -0.48 | -1.13 | -0.49 | 0.2 | -1.1 | -0.51 | 0.16 | -0.21 | -0.41
Clc1ccc(CCCOCCCN2CCCCC2)cc1 [Pitolisant (hydrochloride)] | -0.07 | -0.06 | -0.26 | 0.32 | -0.29 | 0.61 | 0.75 | -0.69 | -0.12
c1cc(CN2CCCNCCNCCCNCC2)ccc1CN1CCCNCCNCCCNCC1 [Plerixafor] | -0.44 | -0.27 | -0.58 | -0.33 | -0.4 | 0.18 | -0.31 | 0.01 | 0.2
Clc1ccc2c(c1)N=C(N1CCNCC1)c1ccccc1N2 [N-Desmethylclozapine] | 0.23 | -0.53 | 0.43 | 1.18 | -0.13 | -0.15 | -0.56 | -3.16 | -0.88
CN(C)CCOC(C)(c1ccccc1)c1ccc(Cl)cc1 (stereo unspecified) [Chlorphenoxamine] | -0.16 | -0.81 | -0.43 | 1.03 | 0.74 | -0.25 | -4.26 | -7.36 | -4.5
CC(C)NCC(O)COc1ccc(CC(N)=O)cc1 (stereo unspecified) [Atenolol] | -0.52 | 0.4 | 0.01 | -0.04 | 0.17 | -0.24 | 0.35 | 1.32 | 0.52
CC[C@@H]1C(=O)OC[C@@H]1Cc1cncn1C [Pilocarpine (Hydrochloride)] | -0.43 | -0.86 | -1.24 | -0.26 | 0.32 | -0.62 | -0.79 | -0.13 | -0.68
Cn1c(=O)c2c(ncn2CC(O)CO)n(C)c1=O (stereo unspecified) [Diphylline] | 0.41 | -0.34 | 0.18 | -0.8 | -0.66 | -0.08 | -0.54 | -0.14 | -0.15
CCCc1nc(C(C)(C)O)c(C(=O)OCc2oc(=O)oc2C)n1Cc1ccc(-c2ccccc2-c2nnn[nH]2)cc1 [Olmesartan (medoxomil)] | 0.4 | 0.18 | 0.06 | -0.05 | -0.37 | 0.51 | -0.4 | -0.27 | -0.03
CN1CCC(=C2c3ccccc3CCc3sccc32)CC1 [Pizotifen] | -0.04 | -0.86 | 0.42 | -0.72 | -0.92 | -0.44 | 0.35 | -1.87 | -0.19
NCCCC[C@H](NC(=O)[C@@H]1CCCN1C(=O)[C@@H]1CSSC[C@H](NC(=O)CNC(=O)CNC(=O)CN)C(=O)N[C@@H](Cc2ccc(O)cc2)C(=O)N[C@@H](Cc2ccccc2)C(=O)N[C@@H](CCC(N)=O)C(=O)N[C@@H](CC(N)=O)C(=O)N1)C(=O)NCC(N)=O [Terlipressin] | -0.33 | 1.22 | 0.1 | -0.25 | 1.31 | 0.17 | 0.05 | 0.98 | 0.08
COc1ccc(C2CC(c3ccccc3)=NN2c2ccc(S(N)(=O)=O)cc2)cc1 (stereo unspecified) | 1.48 | 0.59 | 1.68 | 0.08 | 0.24 | 1.03 | -3.22 | -0.2 | -6.71
Clc1cccc(Cl)c1NC1=NCCN1 [Clonidine (hydrochloride)] | 1.25 | 0.19 | 0.71 | 0.13 | -0.49 | 0.67 | 0.37 | 0.75 | 1.03
N=C(N)NCCC[C@H](NC(=O)[C@H](Cc1ccccc1)NC(=O)[C@@H]1CCCN1C(=O)[C@H](CO)NC(=O)[C@H](Cc1ccccc1)NC(=O)CNC(=O)[C@@H]1CCCN1C(=O)[C@@H]1CCCN1C(=O)[C@@H](N)CCCNC(=N)N)C(=O)O [Bradykinin] | -0.11 | 0.29 | 0.54 | 0.27 | 0.87 | -0.42 | -0.14 | 0.5 | -0.36
O=C(c1ccc(F)cc1)C1CCN(CCn2c(=O)[nH]c3ccccc3c2=O)CC1 [Ketanserin (tartrate)] | 0.29 | 0.02 | 0.51 | 1.64 | 0.3 | -0.28 | 0.46 | -0.54 | 0.68
NC(N)=Nc1nc(CSCCN/C=N/S(=O)(=O)c2ccc(Br)cc2)cs1 [Ebrotidine] | 0.73 | -0.3 | 0.14 | -0.89 | -0.64 | 0.12 | -4.2 | -3.36 | -1.7
CNC(=O)c1cnn(-c2nc(N)c3ncn([C@@H]4O[C@H](CO)[C@@H](O)[C@H]4O)c3n2)c1 [Regadenoson] | -0.8 | 1.03 | -0.12 | -0.88 | 0.42 | -0.35 | 1.19 | 1.71 | 0.29
O=C(O)CC1CCC2(CC1)CCN(c1cc(OC(F)(F)F)ccc1Cl)CC2 | -0.2 | -0.27 | -0.55 | 0.19 | 1.05 | -1.05 | 0.09 | 0.11 | 0.22

Compound | phospho-S6 immunofluorescence (z-score) [1] | phospho-S6 immunofluorescence (z-score) [2] | phospho-S6 immunofluorescence (z-score) [3] | phospho-S6 immunofluorescence (z-score) [4] | phospho-S6 immunofluorescence (z-score) [5] | phospho-S6 immunofluorescence (z-score) [6] | phospho-S6 immunofluorescence (z-score) [7] | phospho-S6 immunofluorescence (z-score) [8] | phospho-S6 immunofluorescence (z-score) [9]
CN(C)CCN(Cc1ccccc1)c1ccccn1 [Tripelennamine (hydrochloride)] | -0.85 | -0.39 | -1.43 | -0.75 | 0.37 | 2.65 | -0.07 | -0.31 | -0.41
O=C(O[C@H]1CN2CCC1CC2)N1CCc2ccccc2[C@@H]1c1ccccc1 [Solifenacin (Succinate)] | -1.04 | 0.9 | -1.67 | -0.82 | 0.18 | -0.07 | 1.65 | 1.13 | -0.65
COc1ccc2[nH]cc(CCNC(C)=O)c2c1 [Melatonin] | 0.18 | 0.9 | -0.78 | -0.75 | 1.33 | -1.56 | -1.25 | 0.24 | -0.21
CCCC(=O)Nc1ccc(OCC(O)CNC(C)C)c(C(C)=O)c1 (stereo unspecified) [Acebutolol (hydrochloride)] | 1.4 | 0.39 | 0.53 | 1.4 | 0.7 | -0.34 | 1.02 | 0.15 | -0.08
O=c1[nH]c2ccccc2n1CCN1CCN(c2cccc(C(F)(F)F)c2)CC1 [Flibanserin] | 0.34 | -0.18 | 0.66 | 0.7 | 0.53 | 0.29 | -0.19 | -0.04 | 0.48
CCN(CCCc1ccccc1)CCCc1ccccc1 [Alverine (citrate)] | -0.18 | -0.15 | -0.55 | -0.27 | -0.09 | -0.62 | -0.52 | -1.04 | 0.02
O=C(c1ccc(OCCCc2c[nH]cn2)cc1)C1CC1 [Ciproxifan (maleate)] | 0.77 | -0.42 | 1 | 1.1 | 0.37 | 0.28 | -0.58 | -0.62 | 0.21
CCC(=O)OCC(=O)[C@@]1(OC(=O)CC)[C@@H](C)C[C@H]2[C@@H]3CCC4=CC(=O)C=C[C@]4(C)[C@@]3(F)[C@@H](O)C[C@@]21C [Betamethasone dipropionate] | 0 | 1.29 | 2.44 | -0.76 | 1.54 | 2.21 | -0.51 | -0.45 | 0.82
Cc1ccc(-c2n[nH]c3c2C(c2cccc(O)c2)N(c2ccc(C(=O)O)cc2)C3=O)cc1 (stereo unspecified) | 0.3 | 0.02 | -0.66 | -0.15 | -0.3 | 0.45 | 0 | 0.5 | -0.12
COc1ccc(S(=O)(=O)Nc2c(C)cc(C)cc2C)cc1 | -0.84 | -1 | -0.96 | -0.39 | -0.12 | -1.88 | 0.04 | -0.37 | -1.05
Cc1noc(-c2ccc(-c3ccc(CC(=O)O)cc3)cc2)c1NC(=O)OC(C)c1ccccc1Cl (stereo unspecified) | 0.17 | 0.7 | -0.55 | 0.13 | 0.93 | 0.31 | 0.23 | 0.28 | 0.02
CN1[C@@H]2CC[C@H]1C[C@@H](OC(=O)c1c[nH]c3ccccc13)C2 [Tropisetron (Hydrochloride)] | -0.59 | -0.65 | 0.48 | 0.1 | 0.64 | -0.23 | 0.95 | -0.2 | -0.04
Cc1ccc2c(c1CCC(=O)O)CC[C@@H](NS(=O)(=O)c1ccc(Cl)cc1)C2 [Terutroban] | -1.31 | -0.82 | -0.19 | -0.89 | -0.88 | -0.59 | -0.9 | 0.55 | -0.1
C=CCc1ccccc1OCC(O)CNC(C)C (stereo unspecified) [Alprenolol (hydrochloride)] | 1.89 | 0.78 | 0.5 | 0.25 | -0.42 | 0.43 | 0.45 | -0.09 | 1.12
N[C@@H](CCC(=O)O)C(=O)[O-].[Na+] [L-Glutamic acid monosodium salt] | -0.04 | -1.12 | -0.96 | -0.12 | -0.95 | -0.69 | 0.12 | -0.6 | -0.39
OCc1cc(C(O)CNCCCCCCOCCCCc2ccccc2)ccc1O (stereo unspecified) [Salmeterol (xinafoate)] | 1.09 | 1.5 | 1.24 | 1.18 | 1.81 | 0.21 | 1.01 | -2.27 | 2.28
C[C@@](N)(C(=O)O)c1ccc(C(=O)O)cc1 | 0.82 | 0.37 | 0.17 | 0.63 | 0.25 | -0.17 | 0.93 | 1 | 0.17
CCCCN1CCC(CNC(=O)c2c3n(c4ccccc24)CCCO3)CC1 [Piboserod] | -1.43 | -0.02 | -0.29 | -0.3 | -0.91 | 0.2 | -0.39 | -0.44 | 0.08
CCOc1nc2cccc(C(=O)O)c2n1Cc1ccc(-c2ccccc2-c2noc(=O)[nH]2)cc1 [Azilsartan] | 0.56 | -0.22 | -0.31 | 0.58 | -0.33 | -0.06 | -0.76 | 0.26 | -0.54

Given with tabs: entries from further up
Compound	phospho-S6 immunofluorescence (z-score) [1]	phospho-S6 immunofluorescence (z-score) [2]	phospho-S6 immunofluorescence (z-score) [3]	phospho-S6 immunofluorescence (z-score) [4]	phospho-S6 immunofluorescence (z-score) [5]	phospho-S6 immunofluorescence (z-score) [6]	phospho-S6 immunofluorescence (z-score) [7]	phospho-S6 immunofluorescence (z-score) [8]	phospho-S6 immunofluorescence (z-score) [9]
O=C(O[C@H]1CN2CCC1CC2)N1CCc2ccccc2[C@@H]1c1ccccc1 [Solifenacin (Succinate)]	-1.04	0.9	-1.67	-0.82	0.18	-0.07	1.65	1.13	-0.65
COc1ccc2[nH]cc(CCNC(C)=O)c2c1 [Melatonin]	0.18	0.9	-0.78	-0.75	1.33	-1.56	-1.25	0.24	-0.21
CCCC(=O)Nc1ccc(OCC(O)CNC(C)C)c(C(C)=O)c1 (stereo unspecified) [Acebutolol (hydrochloride)]	1.4	0.39	0.53	1.4	0.7	-0.34	1.02	0.15	-0.08
